Results are given in words; binding and its absence hold for the method and conditions named. Binding seen in cells or lysates may run through a third protein. Some entries that bind do so weakly or less than the wild type. For part of these data: Tags and fused reporters may be left off the sequences shown.

Chains of the proteins cited; added tags and fusions are not shown.
UniProt Q9Y6K9, whole entry: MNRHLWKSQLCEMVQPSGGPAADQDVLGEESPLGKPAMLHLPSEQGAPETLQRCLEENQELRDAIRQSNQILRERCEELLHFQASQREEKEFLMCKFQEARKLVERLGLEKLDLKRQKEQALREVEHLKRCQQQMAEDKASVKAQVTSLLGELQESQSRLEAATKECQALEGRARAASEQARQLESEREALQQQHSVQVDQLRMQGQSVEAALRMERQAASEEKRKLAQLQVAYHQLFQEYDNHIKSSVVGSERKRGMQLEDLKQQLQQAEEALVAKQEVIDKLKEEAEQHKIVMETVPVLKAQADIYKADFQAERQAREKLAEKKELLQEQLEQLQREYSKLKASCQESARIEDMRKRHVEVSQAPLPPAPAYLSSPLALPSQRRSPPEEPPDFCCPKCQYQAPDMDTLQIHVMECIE

Binding data for 3 molecules are collected here from paper PMC8771851.

Test [1] concerns the target Flag-VRK2 (vaccinia-related kinase 2) (human) (UniProt Q86Y07).
The target of test [2] is GST-VRK2 fusion protein (human) (UniProt Q86Y07). Kind of test: pull-down; 10 μg GST-VRK2 fusion protein incubated with lysate of pancreatic cancer cells overnight at 4°C, then glutathione-Sepharose 4 h at 4°C; western blot; only the target purified.

Consider IKKγ (from UniProt Q9Y6K9 1-419), for which, in test [1], the binding entry is recorded as “no binding”.

B1: HA-IKKβ (enzyme, UniProt O14920 1-756)
chain: MSWSPSLTTQTCGAWEMKERLGTGGFGNVIRWHNQETGEQIAIKQCRQELSPRNRERWCLEIQIMRRLTHPNVVAARDVPEGMQNLAPNDLPLLAMEYCQGGDLRKYLNQFENCCGLREGAILTLLSDIASALRYLHENRIIHRDLKPENIVLQQGEQRLIHKIIDLGYAKELDQGSLCTSFVGTLQYLAPELLEQQKYTVTVDYWSFGTLAFECITGFRPFLPNWQPVQWHSKVRQKSEVDIVVSEDLNGTVKFSSSLPYPNNLNSVLAERLEKWLQLMLMWHPRQRGTDPTYGPNGCFKALDDILNLKLVHILNMVTGTIHTYPVTEDESLQSLKARIQQDTGIPEEDQELLQEAGLALIPDKPATQCISDGKLNEGHTLDMDLVFLFDNSKITYETQISPRPQPESVSCILQEPKRNLAFFQLRKVWGQVWHSIQTLKEDCNRLQQGQRAAMMNLLRNNSCLSKMKNSMASMSQQLKAKLDFFKTSIQIDLEKYSEQTEFGITSDKLLLAWREMEQAVELCGRENEVKLLVERMMALQTDIVDLQRSPMGRKQGGTLDDLEEQARELYRRLREKPRDQRTEGDSQEMVRLLLQAIQSFEKKVRVIYTQLSKTVVCKQKALELLPKVEEVVSLMNEDEKTVVRLQEKRQKELWNLLKIACSKVRGPVSGSPDSMNASRLSQPGQLMSQPSTASNSLPEPAKKSEELVAEAHNLCTLLENAIQDTVREQDQSFTALDWSWLQTEEEEHSCLEQAS
For B1, in test [1], the binding entry is recorded as “binds”.

B2: endogenously expressed IKKβ (enzyme, UniProt O14920 1-756)
chain: B1 chain
Regarding B2, the binding result in test [2] is “binds”.
